Laboratory results: PubChem BioAssay AID1259254 (NCATS, 2017)
Shown is an unselected part of about 59,000 deposited reagents. About 1,550 of them (2.6%) count as active. 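G2 share is only a proxy for re-replication; each gene was hit by three separate siRNAs, and active genes were retested.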 Raw values are not corrected between plates. A number with no mark means an inactive call. The numbers tell different reagents against one gene apart. Reagent sequences are not shown. The record does not give: the amount of reagent.

Assay: 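Gene knock-downs that lead to re-replication, shown by excess G2 DNA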 (primary screen)
Cell system: human HCT116 colorectal cancer cells
Reagent: single siRNA against human genes
Time to read-out: 3 days
Measurement: 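Imaged Hoechst DNA stain sorts each cell into a cycle phase by DNA amount; per plate, G2 fraction set to 0% for non-targeting and 100% for GMNN siRNA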
Reading the numbers: G2 robust z-score and G2 cells, % of GMNN control: higher = more G2 cells, more excess DNA replication; raw share of cells in G2: higher = larger share of cells with G2 DNA content
Rule for the call: 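An siRNA counts as active if its G2 robust z-score lies at least 5 MADs above the screen median; here such calls match roughly 38% of GMNN control or more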

no.	target gene	reagent	G2 robust z-score	G2 cells, % of GMNN control	raw share of cells in G2 (%)
1	COL1A2	1	0.414	5.88	5.79
2	COL1A2	2	0.344	5.38	7.37
3	COL1A2	3	0.835	8.84	6.32
4	KRT9	1	0.802	8.61	8.96
5	KRT9	2	0.819	8.73	8.22
6	KRT9	3	0.398	5.77	6.32
7	SPATA18	1	-0.69	-1.89	3.46
8	SPATA18	2	2.7	22	10.1
9	SPATA18	3	-0.786	-2.56	1.65
10	SNAPC2	1	-0.438	-0.115	5.08
11	SNAPC2	2	-0.774	-2.48	2.91
12	SNAPC2	3	-0.866	-3.13	2.24
13	BICDL1	1	-0.304	0.829	4.44
14	BICDL1	2	-0.748	-2.29	2.28
15	BICDL1	3	-0.393	0.199	2.99
16	SRY	1	-0.846	-2.99	4.68
17	SRY	2	-0.439	-0.123	4.5
18	SRY	3	1.31	12.2	7.99
19	DNAJB7	1	1.32	12.2	7.3
20	DNAJB7	2	0.422	5.94	5.23
21	DNAJB7	3	-0.599	-1.25	3.09
22	PRIM2	1	0.0758	3.5	5.31
23	PRIM2	2	2.25	18.8	11.5
24	PRIM2	3	-1.18	-5.32	2.65
25	RNASE6	1	-0.727	-2.15	4.24
26	RNASE6	2	-0.858	-3.07	3.12
27	RNASE6	3	0.32	5.22	6.67
28	TEDDM1	1	2.08	17.6	8.95
29	TEDDM1	2	-0.38	0.296	4.29
30	TEDDM1	3	4.14	32.1	13.3
31	POM121	1	1.34	12.4	10.9
32	POM121	2	0.526	6.67	6.73
33	POM121	3	-0.391	0.214	3.48
34	MIER3	1	-0.83	-2.87	2.57
35	MIER3	2	-0.398	0.164	3.01
36	MIER3	3	1.97	16.9	8.09
37	ZBTB35	1	-0.46	-0.271	3.44
38	ZBTB35	2	1.79	15.5	12.9
39	ZBTB35	3	0.606	7.23	6.37
40	MAGED4B	1	-0.208	1.5	5.07
41	MAGED4B	2	-0.736	-2.21	3.34
42	MAGED4B	3	-0.254	1.18	2.7
43	LINC02363	1	-0.978	-3.92	2.12
44	LINC02363	2	-0.53	-0.764	3.25
45	LINC02363	3	-0.388	0.236	2.96
46	ACE2	1	2.72	22.1	13.3
47	ACE2	2	0.352	5.44	6.83
48	ACE2	3	-0.841	-2.95	2.81

Sorted by “G2 robust z-score” (low to high): 4 of the entries above.
target gene	reagent	G2 robust z-score	G2 cells, % of GMNN control	raw share of cells in G2 (%)
KRT9	3	0.398	5.77	6.32
KRT9	1	0.802	8.61	8.96
KRT9	2	0.819	8.73	8.22
COL1A2	3	0.835	8.84	6.32
